Experimental data from the supplement of paper PMC12823440, “Inhibitors supercharge kinase turnover through native proteolytic circuits” (Nature, 2025).
Counter-ions that a name gives are not always drawn. Some of the results follow. The calls rarely recur for the same compound in another form.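 Kinases were expressed as nanoluciferase fusions in K562 cells and luminescence was read every 4 h between 2 and 18 h as percent of control, DMSO set to 100% and a positive control to 0%. A time point counts as decreased when the signal drops significantly (2 sigma). The hit call is the authors' own, does not follow from the count of time points alone, and its rule is not shown.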

Test system: BRAF_V600E
Experiment: number of time points (of 5) at which kinase-Nluc abundance scored as decreased, DMSO-normalised (count); higher = more persistent destabilization
Details: K562; 2-18 h

Row | SMILES | number of time points
1 | NCc1ccc(Nc2ncc(F)c(Nc3ccccc3)n2)cc1 (10 µM) | 0
2 | C=C(C)C(=O)Nc1cccc(-c2ncnc3[nH]cc(C(=O)OCC)c23)c1 (10 µM) | 0
3 | CCOc1cc(C(=O)N2CCC(N3CCN(C)CC3)CC2)ccc1Nc1ncc2c(n1)N(C1CCCC1)c1ccccc1C(=O)N2C (10 µM) | 0
4 | CCOc1ccc(C(=O)Nc2ncc([N+](=O)[O-])s2)cc1 (10 µM) | 0
5 | CNC(=O)Nc1ccc(-c2cc(-c3ccnc(Nc4ccc(C)c(S(=O)(=O)N(C)C)c4)n3)ccn2)cc1 [hSMG-1 inhibitor 11e] (2.5 µM) | 0
6 | CNC(=O)c1ccc(-c2cnc3cnc(C(=O)N(C)c4ccc(Cl)cc4)cn23)cc1 (2.5 µM) | 0
7 | COc1cccc(-n2c(=O)[nH]c3cc(Cl)n(-c4ccc(-c5cccc(OC)c5O)cc4)c3c2=O)c1 (2.5 µM) | 1
8 | O=C(Nc1cccnc1)c1cc(C(=O)c2c(F)cccc2Br)c[nH]1 (10 µM) | 0
9 | CN(CC(=O)N(Cc1ccc(C2CCCCC2)cc1)c1ccc(C(=O)O)cc1)S(=O)(=O)c1c(F)c(F)c(F)c(F)c1F (2.5 µM) | 0
10 | COc1c(NC(=O)C(=O)c2ccc(OCCN3CCOCC3)c3ccccc23)cc(C(C)(C)C)cc1NS(C)(=O)=O (2.5 µM) | 0
11 | CC(C)CC1(O)CCN(C(=O)c2ccc(NS(=O)(=O)c3cccc4nccnc34)cc2)CC1 (10 µM) | 0
12 | O=C(/C=C/c1ccc(O)c(O)c1)c1ccc(O[C@@H]2O[C@H](CO)[C@@H](O)[C@H](O)[C@H]2O)c(O)c1O [Marein] (10 µM) | 0
13 | Cc1cc2cc(Nc3ccnc(Nc4ccc5[nH]c(C)cc5c4)n3)ccc2[nH]1 (2.5 µM) | 0
14 | Cc1cc(Nc2cc(Cl)nc(Oc3ccc([N+](=O)[O-])cc3)n2)n[nH]1 [Autophinib] (2.5 µM) | 0
15 | Fc1ccc(-c2nc(-c3ccccc3F)[nH]c2-c2ccncc2)cc1 (2.5 µM) | 0
16 | OC(COc1ccc(C(F)(F)F)cc1)CN(Cc1ccccc1)Cc1ccccc1 (configuration not stated) (2.5 µM) | 0

Row | SMILES | number of time points
17 | COc1ccc2[nH]cc(/C=C3\C(=O)Nc4ccc(NC(=O)CCN5CCCCC5)cc43)c2c1 (2.5 µM) | 0
18 | CS(=O)(=O)c1ccc(-c2noc(C(F)(F)F)c2-c2ccccc2)cc1 (10 µM) | 0
19 | COCCO[C@@H]1[C@H](O)[C@@H](CO)O[C@H]1n1cnc2c(=O)[nH]c(N)nc21 [2′-O-(2-Methoxyethyl)guanosine] (10 µM) | 0
20 | Cn1cnc(-c2cc3nccc(Oc4ccc(NC(=S)NC(=O)Cc5ccccc5)cc4F)c3s2)c1 [MGCD-265 analog] (10 µM) | 1
21 | Cc1noc(C)c1-c1ccc(-c2cc(C(N)=O)c(NC(N)=O)s2)c(O[C@H]2CCNC2)c1 (10 µM) | 0
22 | Cc1c(CN2CCN(S(C)(=O)=O)CC2)sc2c(N3CCOCC3)nc(-c3cnc(N)nc3)nc12 (2.5 µM) | 0
23 | CC(C)CN(CC(=O)N1CCN(CC(OCc2ccc3ccccc3c2)c2ccc(Cl)cc2Cl)CC1)CC(C)C (configuration not stated) [LYN-1604 (dihydrochloride)] (2.5 µM) | 0
24 | CC/C=C\C/C=C\C/C=C\CCCCCCCC(=O)O [α-Linolenic acid] (10 µM) | 0
25 | Nc1ncnc2c1c(-c1ccc(Oc3ccccc3)cc1)nn2C1CCNCC1 [N-piperidine Ibrutinib (hydrochloride)] (10 µM) | 0
26 | CC(C)NC(=O)N1CC[C@H](NC2=Nc3cc(F)ccc3N(CC(F)F)c3ccc(Cl)cc32)C1 (10 µM) | 0
27 | O=C(Nc1cc(Oc2cc(F)c(NC(=O)C3(C(=O)Nc4ccc(F)cc4)CC3)cc2F)ccn1)C1CC1 [Altiratinib] (10 µM) | 0
28 | COCCOc1ccc(-c2cn(-c3ccccc3)c3nc[nH]c(=O)c23)cc1 (10 µM) | 0
29 | Cc1ccc2nc(NC(=O)CSc3nc4c(c(=O)n3-c3ccccc3)SCC4)sc2c1 (2 µM) | 0
30 | C[C@]1(O)CCC[C@@H]1n1c(=O)c(C(F)F)cc2cnc(NC3CCN(S(C)(=O)=O)CC3)nc21 (10 µM) | 0
31 | NC1(Cc2ccc(Cl)cc2)CCN(c2ncnc3[nH]ccc23)CC1 (10 µM) | 0
32 | O=C(O)c1cc(O)ccc1O [2,5-Dihydroxybenzoic acid] (10 µM) | 0

Part of the list above in another layout:
Row	SMILES	number of time points
18	CS(=O)(=O)c1ccc(-c2noc(C(F)(F)F)c2-c2ccccc2)cc1 (10 µM)	0
19	COCCO[C@@H]1[C@H](O)[C@@H](CO)O[C@H]1n1cnc2c(=O)[nH]c(N)nc21 [2′-O-(2-Methoxyethyl)guanosine] (10 µM)	0
20	Cn1cnc(-c2cc3nccc(Oc4ccc(NC(=S)NC(=O)Cc5ccccc5)cc4F)c3s2)c1 [MGCD-265 analog] (10 µM)	1
21	Cc1noc(C)c1-c1ccc(-c2cc(C(N)=O)c(NC(N)=O)s2)c(O[C@H]2CCNC2)c1 (10 µM)	0
22	Cc1c(CN2CCN(S(C)(=O)=O)CC2)sc2c(N3CCOCC3)nc(-c3cnc(N)nc3)nc12 (2.5 µM)	0
24	CC/C=C\C/C=C\C/C=C\CCCCCCCC(=O)O [α-Linolenic acid] (10 µM)	0
27	O=C(Nc1cc(Oc2cc(F)c(NC(=O)C3(C(=O)Nc4ccc(F)cc4)CC3)cc2F)ccn1)C1CC1 [Altiratinib] (10 µM)	0
32	O=C(O)c1cc(O)ccc1O [2,5-Dihydroxybenzoic acid] (10 µM)	0
